Experimental data from article PMC6527189.
Results are given in words; binding and its absence hold for the method and conditions named. Binding seen in cells or lysates may run through a third protein. Some results given as binding are weak or reduced against the parent protein; the word gives no strength.

Amino acid sequences for entries named in this document (tags omitted).
UniProt Q86WV6: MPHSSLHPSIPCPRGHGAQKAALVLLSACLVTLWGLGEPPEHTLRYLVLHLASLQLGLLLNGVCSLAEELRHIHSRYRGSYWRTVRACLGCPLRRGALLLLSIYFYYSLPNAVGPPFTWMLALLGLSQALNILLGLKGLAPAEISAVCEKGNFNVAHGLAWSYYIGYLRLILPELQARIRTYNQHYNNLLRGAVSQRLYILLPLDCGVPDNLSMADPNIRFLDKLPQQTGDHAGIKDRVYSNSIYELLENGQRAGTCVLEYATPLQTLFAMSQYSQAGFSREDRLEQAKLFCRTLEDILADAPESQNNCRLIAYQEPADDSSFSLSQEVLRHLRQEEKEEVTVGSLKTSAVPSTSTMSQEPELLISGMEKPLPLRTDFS
UniProt Q8N884: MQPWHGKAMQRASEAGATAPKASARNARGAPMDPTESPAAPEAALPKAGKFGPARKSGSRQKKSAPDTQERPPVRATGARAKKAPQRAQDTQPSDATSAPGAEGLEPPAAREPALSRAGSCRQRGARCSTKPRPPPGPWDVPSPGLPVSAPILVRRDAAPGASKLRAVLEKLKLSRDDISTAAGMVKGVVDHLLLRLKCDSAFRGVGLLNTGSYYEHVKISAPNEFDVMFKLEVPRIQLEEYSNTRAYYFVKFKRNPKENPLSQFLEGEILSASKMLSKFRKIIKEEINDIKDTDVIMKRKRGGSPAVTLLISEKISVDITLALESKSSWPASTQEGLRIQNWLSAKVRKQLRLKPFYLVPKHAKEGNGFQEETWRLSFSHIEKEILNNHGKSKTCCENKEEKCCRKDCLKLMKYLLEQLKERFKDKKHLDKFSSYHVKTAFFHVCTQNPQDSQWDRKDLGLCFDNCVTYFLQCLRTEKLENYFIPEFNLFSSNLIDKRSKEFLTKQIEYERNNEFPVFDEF
UniProt P16815: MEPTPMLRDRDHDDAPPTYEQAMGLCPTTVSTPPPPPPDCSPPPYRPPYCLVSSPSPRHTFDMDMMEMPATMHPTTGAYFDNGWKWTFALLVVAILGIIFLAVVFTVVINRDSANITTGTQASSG

Experiments:
[1] = biological target: MITA (endogenous in HFFs) (human (endogenous in HFF)) (UniProt Q86WV6); experiment: co-IP
[2] = biological target: cGAS (endogenous in HFFs) (human (endogenous in HFF)) (UniProt Q8N884); experiment: co-IP

**Q.** Which binding [1] does the source give for “HCMV UL42 (endogenous, from infection) (from UniProt P16815 1-125)” here?
**A.** Its binding is “binds”.

**Q.** What about the binding [2] of the same substance?
**A.** The binding was “binds”.
